The exact form of at least one protein or probe is not confirmed. For some of these results: The comparison behind a weaker result is the experiment's own reference, which may not be listed here. For some of these results: At least one verdict rests on a figure or table, not on a statement of the authors. For some of these results: At least one result comes from cells or an extract, where the contact may be indirect.
Legend:
complement C3 (human) = experiment: EMSA; conditions: 2'-fluoro pyrimidines, 20 mM HEPES pH 7.4, 150 mM NaCl, 10 mM MgCl2, BSA and yeast RNA 1 ug/20 uL each, native protein, label: 32P
EGFR on MDA-MB-231 cells = EGFR on MDA-MB-231 cells (UniProt P00533); experiment: cell-surface fluorescence microscopy; conditions: 2.64 uM RNA, PBS with MgCl2, 25 C; 2'-fluoro pyrimidines (RNA strand); 20 mM HEPES pH 7.4, 150 mM NaCl, 10 mM MgCl2, BSA and yeast RNA 1 ug/20 uL each, 45 min at 37 C; protein on the cell surface; label: 5' biotin on DNA, SA-PE
complement iC3b (human) = experiment: EMSA; conditions: 20 mM HEPES pH 7.4, 150 mM NaCl, 10 mM MgCl2, BSA and yeast RNA 1 ug/20 uL each, 45 min at 37 C, native protein
complement C3b (human) = experiment: EMSA; conditions: 2'-fluoro pyrimidines; 20 mM HEPES pH 7.4, 150 mM NaCl, 10 mM MgCl2, BSA and yeast RNA 1 ug/20 uL each, 45 min at 37 C; native protein; label: 32P

Chains of the proteins cited; added tags and fusions are not shown. A line that says so, or that is headed by a name, gives the form on record, which may keep a tag or linker.
complement iC3b (human), one chain, as listed by the source, chain 2 of 3: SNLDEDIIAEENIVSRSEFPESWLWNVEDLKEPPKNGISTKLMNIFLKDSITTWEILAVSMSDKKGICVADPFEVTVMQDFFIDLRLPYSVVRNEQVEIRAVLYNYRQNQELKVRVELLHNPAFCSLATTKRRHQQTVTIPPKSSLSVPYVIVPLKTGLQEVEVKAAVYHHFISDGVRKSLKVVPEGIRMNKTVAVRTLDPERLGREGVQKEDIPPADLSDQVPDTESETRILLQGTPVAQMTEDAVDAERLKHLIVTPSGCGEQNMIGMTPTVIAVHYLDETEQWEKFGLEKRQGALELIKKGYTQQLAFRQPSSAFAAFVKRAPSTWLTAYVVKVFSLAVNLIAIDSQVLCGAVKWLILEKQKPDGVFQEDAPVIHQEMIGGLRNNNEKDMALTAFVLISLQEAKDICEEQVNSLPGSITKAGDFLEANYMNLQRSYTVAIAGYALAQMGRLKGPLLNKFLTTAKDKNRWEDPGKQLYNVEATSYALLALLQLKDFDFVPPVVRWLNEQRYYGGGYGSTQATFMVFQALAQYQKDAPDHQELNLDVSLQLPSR
complement iC3b (human), one chain, as listed by the source, chain 3 of 3: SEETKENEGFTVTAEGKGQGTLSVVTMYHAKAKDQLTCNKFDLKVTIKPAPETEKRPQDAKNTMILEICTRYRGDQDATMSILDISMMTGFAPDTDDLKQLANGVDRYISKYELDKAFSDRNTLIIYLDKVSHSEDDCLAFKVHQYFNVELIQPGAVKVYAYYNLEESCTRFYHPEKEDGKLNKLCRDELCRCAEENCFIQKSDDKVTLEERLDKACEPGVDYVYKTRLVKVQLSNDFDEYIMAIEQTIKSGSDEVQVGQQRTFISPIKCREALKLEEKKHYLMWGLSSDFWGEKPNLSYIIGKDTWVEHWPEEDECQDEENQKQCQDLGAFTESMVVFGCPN
complement C3 (human), one chain, as listed by the source, chain 1 of 2: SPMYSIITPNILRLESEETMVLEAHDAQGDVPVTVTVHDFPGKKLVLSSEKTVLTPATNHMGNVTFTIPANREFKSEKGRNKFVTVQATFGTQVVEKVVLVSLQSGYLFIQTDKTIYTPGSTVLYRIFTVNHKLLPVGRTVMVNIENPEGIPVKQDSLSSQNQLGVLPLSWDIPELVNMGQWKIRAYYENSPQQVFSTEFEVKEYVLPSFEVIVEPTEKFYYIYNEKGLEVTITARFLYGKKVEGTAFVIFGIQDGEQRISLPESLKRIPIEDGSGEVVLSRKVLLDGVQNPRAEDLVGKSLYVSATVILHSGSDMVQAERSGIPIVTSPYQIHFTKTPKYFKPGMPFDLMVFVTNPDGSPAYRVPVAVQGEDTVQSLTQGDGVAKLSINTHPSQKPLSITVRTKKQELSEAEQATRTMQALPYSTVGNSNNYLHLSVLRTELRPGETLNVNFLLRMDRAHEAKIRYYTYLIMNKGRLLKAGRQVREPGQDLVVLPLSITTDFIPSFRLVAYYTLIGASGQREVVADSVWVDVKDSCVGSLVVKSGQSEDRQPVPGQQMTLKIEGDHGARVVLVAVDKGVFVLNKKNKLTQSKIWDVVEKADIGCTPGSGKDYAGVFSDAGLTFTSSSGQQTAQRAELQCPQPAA
complement C3 (human), one chain, as listed by the source, chain 2 of 2: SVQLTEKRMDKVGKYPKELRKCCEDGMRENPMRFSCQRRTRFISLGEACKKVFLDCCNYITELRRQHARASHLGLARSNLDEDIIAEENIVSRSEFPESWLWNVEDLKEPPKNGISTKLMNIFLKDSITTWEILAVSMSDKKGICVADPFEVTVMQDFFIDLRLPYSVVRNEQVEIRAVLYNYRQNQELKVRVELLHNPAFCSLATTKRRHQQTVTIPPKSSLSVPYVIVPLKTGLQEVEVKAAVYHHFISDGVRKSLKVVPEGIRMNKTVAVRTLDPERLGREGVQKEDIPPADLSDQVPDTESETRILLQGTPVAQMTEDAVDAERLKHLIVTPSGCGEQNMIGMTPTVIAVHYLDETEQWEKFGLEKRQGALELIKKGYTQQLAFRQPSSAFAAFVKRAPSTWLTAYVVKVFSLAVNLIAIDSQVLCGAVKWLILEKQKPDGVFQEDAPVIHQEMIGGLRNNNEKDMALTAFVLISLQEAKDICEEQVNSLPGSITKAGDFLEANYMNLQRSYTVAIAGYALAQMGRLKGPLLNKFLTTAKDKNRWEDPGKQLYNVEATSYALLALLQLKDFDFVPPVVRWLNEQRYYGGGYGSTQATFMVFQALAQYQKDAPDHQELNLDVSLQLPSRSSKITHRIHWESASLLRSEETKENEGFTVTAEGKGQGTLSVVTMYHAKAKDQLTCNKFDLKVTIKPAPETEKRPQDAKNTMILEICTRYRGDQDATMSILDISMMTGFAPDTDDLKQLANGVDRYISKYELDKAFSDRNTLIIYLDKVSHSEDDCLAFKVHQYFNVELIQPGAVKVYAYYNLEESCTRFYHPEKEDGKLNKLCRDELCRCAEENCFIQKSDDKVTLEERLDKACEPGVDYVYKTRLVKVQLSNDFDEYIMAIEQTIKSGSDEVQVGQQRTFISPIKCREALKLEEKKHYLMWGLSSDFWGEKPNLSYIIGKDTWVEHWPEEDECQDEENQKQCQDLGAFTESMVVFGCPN
complement C3b (human), one chain, as listed by the source, chain 2 of 2: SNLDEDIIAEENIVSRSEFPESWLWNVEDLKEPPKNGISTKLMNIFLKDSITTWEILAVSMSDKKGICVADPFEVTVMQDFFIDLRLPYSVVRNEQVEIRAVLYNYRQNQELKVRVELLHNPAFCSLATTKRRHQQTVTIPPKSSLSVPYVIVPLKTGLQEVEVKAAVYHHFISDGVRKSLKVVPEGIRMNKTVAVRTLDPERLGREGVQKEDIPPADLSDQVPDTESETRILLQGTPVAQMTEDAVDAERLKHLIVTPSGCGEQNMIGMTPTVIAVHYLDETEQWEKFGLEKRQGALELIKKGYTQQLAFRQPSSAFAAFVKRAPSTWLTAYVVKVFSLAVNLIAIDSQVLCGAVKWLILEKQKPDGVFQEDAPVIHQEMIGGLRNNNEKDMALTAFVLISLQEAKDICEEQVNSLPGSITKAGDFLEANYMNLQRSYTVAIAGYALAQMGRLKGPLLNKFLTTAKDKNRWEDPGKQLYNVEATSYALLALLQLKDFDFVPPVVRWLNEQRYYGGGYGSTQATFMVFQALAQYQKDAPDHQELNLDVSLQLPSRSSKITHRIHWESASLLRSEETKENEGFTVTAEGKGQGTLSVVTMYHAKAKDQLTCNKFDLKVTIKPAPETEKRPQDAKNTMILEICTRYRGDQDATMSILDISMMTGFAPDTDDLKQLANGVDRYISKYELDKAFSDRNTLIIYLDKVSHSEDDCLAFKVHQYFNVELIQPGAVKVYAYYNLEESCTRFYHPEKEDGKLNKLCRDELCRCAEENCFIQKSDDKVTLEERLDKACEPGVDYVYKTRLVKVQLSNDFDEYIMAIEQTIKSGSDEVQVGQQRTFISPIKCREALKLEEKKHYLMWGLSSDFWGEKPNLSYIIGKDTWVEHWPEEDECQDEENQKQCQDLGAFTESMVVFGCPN

“GGGAGAAUUCAACUGCCAUCUAGUUGCAAAAACAUGAGGAUAGCAAAGUACCAGUGCAACUAACAAGGAAAAGAAGACGGACUACAAGCUUCUGGACUCGGU [AptC3-IV]”: binds more weakly (complement C3 (human); 250 nM protein, 45 min at 37 C).

“GGGACGGAUUUAAUCGCCGUAGAAAAGCAUGUCAAAGCCGGAACCGUCCCGAAUUAAAUGCCCGCCAUGACCAG / CTGGTCATGGCGGGCATTTAATTC [E07s-e annealed to biotin DNA oligo]”: binds (EGFR on MDA-MB-231 cells).

“GGGAGAAUUCAACUGCCAUCUAACCACGUAGUAAUACGGUAUGAUCCAGUUUUAAUUCUAACCAGACUGUUCAGAUGACUACAAGCUUCUGGACUCGGU [AptC3-VI]”: binds more weakly (complement iC3b (human); 250 nM protein, 2'-fluoro pyrimidines, label: 32P); binds more weakly (complement C3 (human); 250 nM protein, 45 min at 37 C).

“GGGAGAAUUCAACUGCCAUCUAGCUUGACCAAUAAGACGUAUUGGCCUCCUACGCAUGGCAAGCAGUUCUCUCUACUGAACUACAAGCUUCUGGACUCGGU [AptC3-II]”: binds (complement C3 (human); Kd of the six aptamers in range 10-60 nM, competes with AptC3-III, 45 min at 37 C).

“GGGAGAAUUCAACUGCCAUCUAGCUACGUGGAACCUAAGGUUAAACCGUAUGAUGCAGUUGUACACUCCAAACGAAGAACUACAAGCUUCUGGACUCGGU [AptC3-V]”: binds (complement iC3b (human); selected on iC3b, 2'-fluoro pyrimidines, label: 32P).

“GGGAGAAUUCAACUGCCAUCUAGCUACAAAAAUACGAGGAAAGCAAAGUACCAGUGUAGCUACCAAAAGGAGUAGUAAAACACUACAAGCUUCUGGACAUCGGU [AptC3-I]”: binds (complement C3 (human); Kd of the six aptamers in range 10-60 nM, 45 min at …).

“GGGAGAAUUCAACUGCCAUCUACAGCCCCUCGGCCGCGUUCAGCGUCUAACCUUGGGCUGUAUAGAAAGGGUUUCCAGACUACAAGCUUCUGGACUCGGU [AptC3-III]”: binds (complement C3b (human)).

“GGGACGGAUUUAAUCGCCGUAGAAAAGCAUGUCAAAGCCGGAACCGUCCCUUGCCAUGUGUAUGUGGG / GGGCCCCUCGGCCGCGUUCAGCGUCUAACCUUGGGCCCGGAUCAAUCAUGGCAA / CCCACAUACUUUGUUGAUCC [Trifecta-t (Ft1/Ft2/Ft3)]”: binds (complement iC3b (human); single occupancy, 2'-fluoro pyrimidines in Ft1, Ft2, Ft3 is DNA with U instead of T, label: 32P on strand with C3 aptamer).

“GGGACGGAUUUAAUCGCCGUAGAAAAGCAUGUCAAAGCCGGAACCGUCCCUUGCCAUGUGUAUGUGGGCCC / GGGCCCACAUACUUUGUUGAUCCGGGCCCCUCGGCCGCGUUCAGCGUCUAACCUUGGGCCCGGAUCAAUCAUGGCAA [Trifecta-b (Fb1/Fb2)]”: binds (complement iC3b (human); single occupancy, 2'-fluoro pyrimidines, label: 32P on strand with C3 aptamer).
